Data published in PubChem BioAssay AID328 (DTP/NCI, 2004).
The list shows only some results of the screen, not a fair sample: it gathers tests that were run many times, whatever their T/C, doses with no T/C, and many T/C values between a quarter and a half above the control. Further doses and runs are listed elsewhere. T/C is the treated group as % of the vehicle group. Some doses have a count of surviving animals in place of a T/C: the source holds a T/C of zero for them, seemingly a mark for toxic or unscored doses. Some survivor counts are full or nearly so, which does not show that the dose was tolerated: the source hardly ever lists a survival T/C far under the control, and the zero likely stands for such cases as well. Survivors were counted at the toxicity check, usually on the fifth day, unless a day is given; later deaths do not show. Schedule codes are those of the source, taken here to give the interval after Q, in days (D) or hours (H), and the number of doses after X. Some entries hold several experiments; their values stand side by side, smallest first. Some structures stand for samples that the source files as different forms (salt, stereo form or complex); doses refer to the form tested. Where survival is the endpoint, this PubChem deposit counts one and a half times the control or more as active, and values a quarter to a half above the control carry no call in these data; other NCI protocols may use other cut-offs. Some T/C values are followed by the survivors on the day toxicity was checked, most often the fifth; where none is given, no animal had died by that day.

Test system: BDF1 mice, P388 leukemia ip, median survival T/C
Experiment: NCI In Vivo Anticancer Drug Screen. Data for tumor model P388 Leukemia (intraperitoneal) in B6D2F1 (BDF1) mice
Settings: T/C endpoint: median survival time, higher T/C = longer survival
Procedure, shortened: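 Read-out is survival of treated animals expressed relative to the vehicle group, as a T/C ratio.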

[1] = dose: 200.0 mg/kg/injection, schedule: Q01DX009 (ip), vehicle: saline with Tween-80
[2] = dose: 50.0 mg/kg/injection, schedule: Q01DX009 (ip), vehicle: saline
[3] = dose: 200.0 mg/kg/injection, schedule: Q01DX005 (ip), vehicle: saline with Tween-80
[4] = dose: 25.0 mg/kg/injection, schedule: Q01DX009 (ip), vehicle: saline with Tween-80
[5] = dose: 16.0 mg/kg/injection, schedule: Q01DX009 (ip), vehicle: Klucel (hydroxypropylcellulose) (HPC)
[6] = dose: 32.0 mg/kg/injection, schedule: Q01DX009 (ip), vehicle: Klucel (hydroxypropylcellulose) (HPC)
[7] = dose: 50.0 mg/kg/injection, schedule: Q01DX009 (ip), vehicle: saline with Tween-80
[8] = dose: 200.0 mg/kg/injection, schedule: Q01DX009 (ip), vehicle: saline
[9] = dose: 12.5 mg/kg/injection, schedule: Q01DX009 (ip), vehicle: saline with Tween-80
[10] = dose: 100.0 mg/kg/injection, schedule: Q01DX009 (ip), vehicle: saline with Tween-80
[11] = dose: 400.0 mg/kg/injection, schedule: Q04DX003 (ip), vehicle: saline with Tween-80

## CC[N-]c1nnnn1CC.[Au+].c1ccc([PH+](c2ccccc2)c2ccccc2)cc1
dose: 50.0 mg/kg/injection, schedule: Q01DX001 (ip), vehicle: saline with Tween-80
  survivor count: 0 of 6

## Cc1nc(C)c(Br)s1
[1]
  survivor count: 3 of 6

## CN(C)CC(Cl)CCl (centres undefined)
[2]
  T/C: 127 % of control
dose: 600.0 mg/kg/injection, schedule: Q01DX009 (ip), vehicle: saline
  survivor count: 0 of 6

## Cc1cc(S(=O)(=O)c2ccc(Cl)cc2)nc(S(=O)(=O)c2ccc(Cl)cc2)c1C#N
[3]
  survivor count: 3 of 5

## C(CC1CO1)CC1OC1CC1CO1 (centres undefined)
dose: 225.0 mg/kg/injection, schedule: Q04DX003 (ip), vehicle: saline
  survivor count: 0 of 6

## Cc1sc(C)c(CCl)c1CCl
dose: 16.5 mg/kg/injection, schedule: Q01DX009 (ip), vehicle: saline with Tween-80
  T/C: 125 % of control
[4]
  T/C: 129 % of control
dose: 37.5 mg/kg/injection, schedule: Q01DX009 (ip), vehicle: saline with Tween-80
  T/C: 133 % of control

## CCCCOc1ccc(C(=O)NN)cc1
[1]
  survivor count: 4 of 6

## O=C1NC(c2cccc3ccccc23)Nc2ccccc21 (centres undefined)
[5]
  T/C: 127 % of control
  survivor count: 9 of 9
[6]
  T/C: 145 % of control
  survivor count: 9 of 10
dose: 128.0 mg/kg/injection, schedule: Q01DX009 (ip), vehicle: Klucel (hydroxypropylcellulose) (HPC)
  survivor count: 10 of 10 and 6 of 6
dose: 256.0 mg/kg/injection, schedule: Q01DX009 (ip), vehicle: Klucel (hydroxypropylcellulose) (HPC)
  survivor count: 0 of 10 and 3 of 6
dose: 400.0 mg/kg/injection, schedule: Q01DX009 (ip), vehicle: water
  survivor count: 10 of 10

## O=C(Cl)C1=C(c2ccccc2)C1c1ccccc1 (centres undefined)
[1]
  survivor count: 0 of 6

## O=C(CCl)c1ccc[nH]1
dose: 100.0 mg/kg/injection, schedule: Q04DX003 (ip), vehicle: Klucel (hydroxypropylcellulose) (HPC)
  survivor count: 5 of 6

## COc1ccc(OC)c(NC=O)c1
[7]
  T/C: 130 % of control

## CC1=NN(c2ccccc2)C(=O)C1C(=S)SC1CC(=O)OC1=O (centres undefined)
[1]
  survivor count: 3 of 6

## C1CCNCC1.O=C([CH-]C(=O)C(F)(F)F)c1cccs1.O=C([CH-]C(=O)C(F)(F)F)c1cccs1.O=C([CH-]C(=O)C(F)(F)F)c1cccs1.O=C([CH-]C(=O)C(F)(F)F)c1cccs1.[Eu+3]
[2]
  T/C: 134 % of control
[8]
  survivor count: 4 of 6

## COc1ccc(OCC(O)CN2CCN(c3ccc(Cl)cc3)CC2)cc1 (centres undefined)
dose: 50.0 mg/kg/injection, schedule: Q01DX009 (ip), vehicle: Klucel (hydroxypropylcellulose) (HPC)
  survivor count: 6 of 6
dose: 100.0 mg/kg/injection, schedule: Q01DX009 (ip), vehicle: Klucel (hydroxypropylcellulose) (HPC)
  survivor count: 6 of 6
dose: 200.0 mg/kg/injection, schedule: Q01DX009 (ip), vehicle: Klucel (hydroxypropylcellulose) (HPC)
  survivor count: 6 of 6

## C=CC[N+](C)(CC=C)CC[N+](C)(CC=C)CC=C
dose: 200.0 mg/kg/injection, schedule: Q04DX003 (ip), vehicle: water
  survivor count: 0 of 6

## NCc1cc(=O)[nH]o1
dose: 10.0 mg/kg/injection, schedule: Q01DX005 (ip), vehicle: saline
  survivor count: 3 of 6

## O=C[C@@H](CO)O[C@H](C=O)n1cnc2c(=O)[nH]cnc21
dose: 108.0 mg/kg/injection, schedule: Q04DX003 (ip), vehicle: water
  T/C: 147 % of control
dose: 500.0 mg/kg/injection, schedule: Q04DX003 (ip), vehicle: water
  survivor count: 1 of 8 and 2 of 8

## O=C(Nc1cccc2c(OC(=O)C(Cl)Cl)c(N=Nc3ccc(S(=O)(=O)Nc4nccs4)cc3)cc(N=Nc3ccc(S(=O)(=O)Nc4nccs4)cc3)c12)C(Cl)Cl (tested in a mixture with another compound)
[9]
  T/C: 148 % of control
[4]
  T/C: 129 % of control
[7]
  survivor count: 5 of 6
[10]
  survivor count: 1 of 6
[3]
  survivor count: 3 of 5
[1]
  T/C: 137 % of control

## CCCCCn1c(C)cc(/C=C\c2ccc3cc(C)ccc3[n+]2C)c1C
dose: 0.5 mg/kg/injection, schedule: Q01DX009 (ip), vehicle: saline
  T/C: 125 % of control
dose: 0.66 mg/kg/injection, schedule: Q01DX009 (ip), vehicle: saline
  T/C: 136 % of control
dose: 1.0 mg/kg/injection, schedule: Q01DX009 (ip), vehicle: saline
  T/C: 131 % of control
dose: 1.0 mg/kg/injection, schedule: Q04DX003 (ip), vehicle: saline
  T/C: 127 % of control
dose: 2.0 mg/kg/injection, schedule: Q04DX003 (ip), vehicle: saline
  T/C: 127 % of control
dose: 4.0 mg/kg/injection, schedule: Q04DX003 (ip), vehicle: saline
  survivor count: 3 of 6
dose: 100.0 mg/kg/injection, schedule: Q04DX003 (ip), vehicle: saline with Tween-80
  survivor count: 0 of 6
dose: 200.0 mg/kg/injection, schedule: Q04DX003 (ip), vehicle: saline with Tween-80
  survivor count: 0 of 6
[11]
  survivor count: 0 of 6

## Cc1ccc(CNc2ccc(F)cc2)cc1
dose: 400.0 mg/kg/injection, schedule: Q01DX009 (ip), vehicle: other
  T/C: 140 % of control

## CC(C)(C)OC(=O)NC(CCC(=O)O)(Cc1ccccc1)C(=O)NC(CCC(=O)O)(Cc1ccccc1)C(=O)OCc1ccccc1 (centres undefined)
dose: 50.0 mg/kg/injection, schedule: Q01DX005 (ip), vehicle: saline with Tween-80
  survivor count: 4 of 5
dose: 100.0 mg/kg/injection, schedule: Q01DX005 (ip), vehicle: saline with Tween-80
  survivor count: 5 of 5

## CC([NH-])C(=O)O.O=C(O)CN(CC(=O)O)CC(=O)O.[Co+2]
dose: 100.0 mg/kg/injection, schedule: Q01DX009 (ip), vehicle: saline
  T/C: 104, 123 [5 of 6 alive], 125, 130 % of control
[8]
  survivor count: 3 of 6 and 6 of 6
dose: 400.0 mg/kg/injection, schedule: Q01DX009 (ip), vehicle: saline
  survivor count: 1 of 6

## Cc1cc(N(CCCl)CCCl)ccc1/C=N\Nc1nncn1N
dose: 15.0 mg/kg/injection, schedule: Q01DX009 (ip), vehicle: Klucel (hydroxypropylcellulose) (HPC)
  T/C: 147 % of control
dose: 23.0 mg/kg/injection, schedule: Q01DX009 (ip), vehicle: Klucel (hydroxypropylcellulose) (HPC)
  T/C: 142 % of control
dose: 65.0 mg/kg/injection, schedule: Q04DX003 (ip), vehicle: Klucel (hydroxypropylcellulose) (HPC)
  T/C: 136 % of control
dose: 200.0 mg/kg/injection, schedule: Q04DX003 (ip), vehicle: saline
  T/C: 140 % of control
dose: 400.0 mg/kg/injection, schedule: Q01DX009 (ip), vehicle: Klucel (hydroxypropylcellulose) (HPC)
  survivor count: 2 of 6

## CCOC(=O)[C@]1(Br)CC[C@@]1(Br)C(=O)OCC
[7]
  T/C: 130 % of control
[10]
  T/C: 131 and 133 % of control
[1]
  T/C: 132, 137, 148 % of control
dose: 400.0 mg/kg/injection, schedule: Q01DX009 (ip), vehicle: saline with Tween-80
  survivor count: 5 of 6

## CCCC(C)(C)SSC(C)(C)CCC
[1]
  survivor count: 6 of 6
[11]
  survivor count: 5 of 6

## CNc1nc2c(N)ncnc2n1C1OC(CO)C(O)C1O (centres undefined)
[4]
  T/C: 134 % of control
[7]
  survivor count: 0 of 6
[10]
  survivor count: 0 of 6

## CC(=O)NC1C([Se][As](C)C)OC(COC(C)=O)C(OC(C)=O)C1OC(C)=O (centres undefined)
[9]
  T/C: 129 % of control

## CC[N+](CC)(CC)CCCCCC[N+](CC)(CC)CC
dose: 4.0 mg/kg/injection, schedule: Q04DX003 (ip), vehicle: water
  T/C: 127 % of control
dose: 8.0 mg/kg/injection, schedule: Q04DX003 (ip), vehicle: water
  T/C: 130 % of control
dose: 12.0 mg/kg/injection, schedule: Q04DX003 (ip), vehicle: water
  survivor count: 2 of 6
dose: 12.5 mg/kg/injection, schedule: Q04DX003 (ip), vehicle: water
  survivor count: 5 of 6
dose: 25.0 mg/kg/injection, schedule: Q04DX003 (ip), vehicle: water
  survivor count: 2 of 6

## CC1(C)CN(Cc2ccccc2)C(C)(C)CN1
[9]
  survivor count: 3 of 6
[4]
  survivor count: 0 of 6
dose: 50.0 mg/kg/injection, schedule: Q04DX003 (ip), vehicle: saline with Tween-80
  survivor count: 1 of 6
